Measured values from patent publication US6337069B1, “Method of treating rhinitis or sinusitis by intranasally administering a peptidase” (B.M.R.A. Corporation B.V., priority 2001, dated 2002).
At least one structure is not confirmed: it was looked up by name or label, or the drawing left a doubt. Ends that are not written are not given here.

Test system: vasodilatory response mediated by bradykinin
Test: Bradykinin-evoked vasodilation in pig nasal mucosa in vivo
Conditions: following SNS, similar to control conditions

**Q.** Which “effect of BK injection on Vr” value does the source give for RPPGFSPFR [BK] here?
**A.** dose-dependent decrease of Vr
